Assay: Evaluation of transistor properties of organic transistor devices
Conditions: top-contact organic transistor, spin-coated thin film from chloroform solution, in the air atmosphere
Description: (4) Evaluation of Transistor Properties
For evaluation of transistor properties of the above-described condensed polycyclic aromatic compounds, organic transistor devices were fabricated by the following process.
Organic thin films were formed on n-doped silicon wafers with a thermally oxidized-SiO2 film using chloroform solutions of Compounds 110, 112, 114 and 119, by a spin coat process.
Then, Au was vacuum-deposited on the organic thin film using a shadow mask to thereby fabricate source/drain electrodes. […] The organic transistor device is of a top-contact type; and FIG. 1B illustrates its structure.
It is to be noted that in the organic transistor devices of the Example, the thermally oxidized film on the n-doped silicon wafer functions as an insulator layer (4), and the n-doped silicon wafer functions as both a substrate (6) and a gate electrode (5).
The performance of an organic transistor device depends on the amount of current flowing when a potential is applied between a source and drain electrodes with a potential being applied on a gate electrode. The amount of current can be measured to determine the mobility, which is a characteristic of a transistor. The mobility can be calculated from the expression (a) representing an electric property of carrier species generated in an organic semiconductor layer as a result of application of a gate electric field on SiO2 as an insulator. Id=ZμCi(Vg−Vt)2/2L (a)
wherein, Id is a saturated source-drain current value; Z is a channel width; Ci is an electric capacity of an insulator; Vg is a gate potential; Vt is a threshold potential; L is a channel length; and μ is a mobility (cm^2/Vs) to be determined Ci is a dielectric constant of a SiO2 insulator film used; Z and L are determined from the structure of an organic transistor device; Id and Vg are determined when the current value of an organic transistor device is measured; and Vt can be determined from Id and Vg. By substituting each value for the expression (a), corresponding mobilities at gate potentials can be calculated.
Transistor properties of the above-described condensed polycyclic aromatic compounds, i.e. Compounds 110, 112, 114, 119 and 319, were evaluated in the air atmosphere.

Structure (SMILES) | Mobility | On/Off Ratio | Threshold Potential
CCCCCCCCCCCCc1cc2c(cc(CCCCCCCCCCCC)c3cc(=C(C#N)C#N)sc32)c2sc(=C(C#N)C#N)cc12 [Compound 112] | 4.8 × 10^−2 cm^2V^−1s^−1 | 10^3 | 3.3 V
CCCCCCCCCCCCCCCCc1cc2c(cc(CCCCCCCCCCCCCCCC)c3cc(=C(C#N)C#N)sc32)c2sc(=C(C#N)C#N)cc12 [Compound 114] | 3.3 × 10^−2 cm^2V^−1s^−1 | 10^4 | 1.4 V
CCCCCCCCc1cc2c(cc(CCCCCCCC)c3cc(=C(C#N)C#N)sc32)c2sc(=C(C#N)C#N)cc12 [Compound 110] | 3.3 × 10^−2 cm^2V^−1s^−1 | 10^3 | 8.5 V
CCCCC(CC)Cc1cc2c(cc(CC(CC)CCCC)c3cc(=C(C#N)C#N)sc32)c2sc(=C(C#N)C#N)cc12 (stereo not drawn) [Compound 119] | 0.12 cm^2V^−1s^−1 | 10^4 | 2.3 V
CCCCC(CC)Cc1c2cc(=C(C#N)C#N)sc2cc2c(CC(CC)CCCC)c3cc(=C(C#N)C#N)sc3cc12 (stereo not drawn) [Compound 319] | 6.8 × 10^−3 cm^2V^−1s^−1 | 10^3 | 1.4 V

Source: patent publication US9859508B2, “Condensed polycyclic aromatic compound and use thereof” (Nippon Kayaku Kabushiki Kaisha, priority 2013, dated 2018)
